In article PMC4476799, “Englerin A Agonizes the TRPC4/C5 Cation Channels to Inhibit Tumor Cell Line Proliferation” (PLoS ONE, 2015):
The source gives many values for each of these; only a part stands here.

Test system: cancer cell lines from the cancer cell line encyclopedia (CCLE)
Assay: Cell line profiling (CLiP) proliferation experiment
Type: cell-based
Design: ACTIVITY_AREA: scale not given here; AMAX: unit not given here
Experimental: Compound profiling experiment and data analysis was performed as previously described. Data was imported and plotted using the Tibco Spotfire DXP application. Lines were categorized as sensitive, intermediate and refractory as follows: Amax<-40 & Inflection Point <2 ~ Sensitive, Amax>-20 & Inflection Point >10 ~ Refractory, all else were called Intermediate. Cancer Cell line HG-U133 Plus 2 data was processed and normalized as described. […] Five sets of refractory cell lines were generated from the pool of refractory cell lines trying to match the lineage composition of the set of sensitive cell lines. The limma package was used as previously described to perform the statistical comparison.

[1] = cell line DLD-1 (large_intestine, adenocarcinoma)
[2] = cell line DU 145 (prostate, NS)
[3] = cell line DV-90 (lung, adenocarcinoma)
[4] = cell line EFM-19 (breast, ductal_carcinoma)
[5] = cell line EM-2 (haematopoietic_and_lymphoid_tissue, blast_phase_chronic_myeloid_leukaemia)
[6] = cell line GCT (soft_tissue, NS)
[7] = cell line GI-1 (central_nervous_system, gliosarcoma)
[8] = cell line GOS-3 (central_nervous_system, astrocytoma)
[9] = cell line HARA (lung, squamous_cell_carcinoma)

**Q.** What does the source list for `CC(C)[C@@]12C[C@@H](O)[C@@](C)(O1)[C@@H]1CC[C@@H](C)[C@H]1[C@@H]2OC(=O)/C=C/c1ccccc1` [Englerin B]?
**A.** ACTIVITY_AREA [1]: 71.46; AMAX [1]: -59.67; RESPONSE [1]: INTERMEDIATE; ACTIVITY_AREA (cell line DMS 114): 21.61; AMAX (cell line DMS 114): -57.16; RESPONSE (cell line DMS 114): INTERMEDIATE; ACTIVITY_AREA (cell line DOHH-2): 33.67; AMAX (cell line DOHH-2): -98.82; RESPONSE (cell line DOHH-2): INTERMEDIATE; ACTIVITY_AREA [2]: 176.13; AMAX [2]: -54.93; RESPONSE [2]: INTERMEDIATE; ACTIVITY_AREA [3]: 23.59; AMAX [3]: -71.93; RESPONSE [3]: INTERMEDIATE; ACTIVITY_AREA (cell line Detroit 562): 35.45; AMAX (cell line Detroit 562): -46.18; RESPONSE (cell line Detroit 562): INTERMEDIATE; ACTIVITY_AREA (cell line EB1): 13.39; AMAX (cell line EB1): -56.14; RESPONSE (cell line EB1): INTERMEDIATE; ACTIVITY_AREA (cell line EB2): 28.45; AMAX (cell line EB2): -57.08; RESPONSE (cell line EB2): INTERMEDIATE; ACTIVITY_AREA [4]: 28.98; AMAX [4]: -31.96; RESPONSE [4]: INTERMEDIATE; ACTIVITY_AREA (cell line EFM-192A): 78.14; AMAX (cell line EFM-192A): -57.28; RESPONSE (cell line EFM-192A): INTERMEDIATE; ACTIVITY_AREA [5]: 14.33; AMAX [5]: -44.27; RESPONSE [5]: INTERMEDIATE; ACTIVITY_AREA (cell line EN): 5.5; AMAX (cell line EN): -23.22; RESPONSE (cell line EN): INTERMEDIATE; ACTIVITY_AREA (cell line ES-2): 44.96; AMAX (cell line ES-2): -44.71; RESPONSE (cell line ES-2): INTERMEDIATE; ACTIVITY_AREA (cell line ESS-1): 41.09; AMAX (cell line ESS-1): -72.67; RESPONSE (cell line ESS-1): INTERMEDIATE; ACTIVITY_AREA (cell line FU-OV-1): 158.99; AMAX (cell line FU-OV-1): -69.93; RESPONSE (cell line FU-OV-1): INTERMEDIATE; ACTIVITY_AREA (cell line G-361): 55.99; AMAX (cell line G-361): -32.98; RESPONSE (cell line G-361): INTERMEDIATE; ACTIVITY_AREA (cell line G-401): 47.08; AMAX (cell line G-401): -74.97; RESPONSE (cell line G-401): INTERMEDIATE; ACTIVITY_AREA (cell line GA-10): 28.18; AMAX (cell line GA-10): 8.5; RESPONSE (cell line GA-10): REFRACTORY; ACTIVITY_AREA (cell line GCIY): 49.94; AMAX (cell line GCIY): -70.92; RESPONSE (cell line GCIY): INTERMEDIATE; ACTIVITY_AREA [6]: 17.95; AMAX [6]: -52.9; RESPONSE [6]: INTERMEDIATE; ACTIVITY_AREA [7]: 112.12; AMAX [7]: -25.87; RESPONSE [7]: INTERMEDIATE; ACTIVITY_AREA (cell line GMS-10): 21.47; AMAX (cell line GMS-10): -32.03; RESPONSE (cell line GMS-10): INTERMEDIATE; ACTIVITY_AREA [8]: 26.28; AMAX [8]: -31.04; RESPONSE [8]: INTERMEDIATE; ACTIVITY_AREA (cell line GP2d): 32.63; AMAX (cell line GP2d): -48.04; RESPONSE (cell line GP2d): INTERMEDIATE; ACTIVITY_AREA (cell line GR-M): 48.68; AMAX (cell line GR-M): -36.64; RESPONSE (cell line GR-M): INTERMEDIATE; ACTIVITY_AREA (cell line GRANTA-519): 14.82; AMAX (cell line GRANTA-519): 16.83; RESPONSE (cell line GRANTA-519): REFRACTORY; ACTIVITY_AREA (cell line H4): 16.33; AMAX (cell line H4): -3.42; RESPONSE (cell line H4): REFRACTORY; ACTIVITY_AREA [9]: 73.57; AMAX [9]: -72.32; RESPONSE [9]: INTERMEDIATE; ACTIVITY_AREA (cell line HCC38): 10.97; AMAX (cell line HCC38): -45.93
